Test [1] deals with Tcf3 in Jurkat cells (human (endogenous in Jurkat)) (UniProt P15923). The test is described as follows: co-IP; Pierce co-IP kit; lysates of Jurkat cells, GFP-Id2^WT and GFP-Id2^ΔHLH Jurkat cells, with or without anti-CD3 antibody; IP lysis buffer (0.025 M Tris, 0.15 M NaCl, 0.001 M EDTA, 1% NP-40, 5% glycerol); antibody-conjugated resin (anti-GFP, anti-Flag or anti-Tcf3) overnight at 4 °C; immunoblot. In general terms: A western blot detects proteins with antibodies after separation by electrophoresis.

Amino acid sequences for entries named in this document (tags omitted).
UniProt P17542: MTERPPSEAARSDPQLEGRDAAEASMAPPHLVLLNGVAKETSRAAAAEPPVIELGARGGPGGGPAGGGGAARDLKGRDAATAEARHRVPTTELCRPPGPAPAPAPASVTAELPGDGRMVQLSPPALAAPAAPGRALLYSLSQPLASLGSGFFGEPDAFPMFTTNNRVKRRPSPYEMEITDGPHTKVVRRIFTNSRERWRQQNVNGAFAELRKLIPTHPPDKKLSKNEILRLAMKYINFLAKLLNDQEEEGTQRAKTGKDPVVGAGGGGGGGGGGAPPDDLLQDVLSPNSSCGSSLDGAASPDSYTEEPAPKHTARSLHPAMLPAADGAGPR
UniProt Q92769: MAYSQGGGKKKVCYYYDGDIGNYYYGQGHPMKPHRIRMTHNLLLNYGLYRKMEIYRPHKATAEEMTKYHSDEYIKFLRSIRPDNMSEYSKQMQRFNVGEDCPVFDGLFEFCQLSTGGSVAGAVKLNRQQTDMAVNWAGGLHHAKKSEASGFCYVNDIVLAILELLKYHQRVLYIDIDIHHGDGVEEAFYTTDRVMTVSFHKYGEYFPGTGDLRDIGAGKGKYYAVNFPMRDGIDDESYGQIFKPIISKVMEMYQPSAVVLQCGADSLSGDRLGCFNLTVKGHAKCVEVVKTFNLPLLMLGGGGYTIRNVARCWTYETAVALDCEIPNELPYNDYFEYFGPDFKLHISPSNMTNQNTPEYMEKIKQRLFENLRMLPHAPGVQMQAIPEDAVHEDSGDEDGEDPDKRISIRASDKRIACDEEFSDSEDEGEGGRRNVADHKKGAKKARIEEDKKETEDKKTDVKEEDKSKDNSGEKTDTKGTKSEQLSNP
UniProt Q13547: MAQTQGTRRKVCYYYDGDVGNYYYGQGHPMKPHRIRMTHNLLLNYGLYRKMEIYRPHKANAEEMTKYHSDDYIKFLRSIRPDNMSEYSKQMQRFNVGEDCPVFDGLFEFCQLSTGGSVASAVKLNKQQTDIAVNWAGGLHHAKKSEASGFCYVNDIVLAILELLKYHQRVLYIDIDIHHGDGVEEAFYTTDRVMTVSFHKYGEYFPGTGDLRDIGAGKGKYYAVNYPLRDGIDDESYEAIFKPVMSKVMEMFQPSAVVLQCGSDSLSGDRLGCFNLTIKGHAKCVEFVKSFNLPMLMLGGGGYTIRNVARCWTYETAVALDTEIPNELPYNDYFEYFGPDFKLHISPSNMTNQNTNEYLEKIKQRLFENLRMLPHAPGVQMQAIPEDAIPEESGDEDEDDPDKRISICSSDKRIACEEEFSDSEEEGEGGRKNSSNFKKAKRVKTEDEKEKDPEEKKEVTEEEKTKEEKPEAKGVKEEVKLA

Test [2] has the same target. The test is described as above. This is another data set of the same source.
Test [3] concerns the target Tal1 in Jurkat cells (human (endogenous in Jurkat)) (UniProt P17542). Described as above.
Test [4] addresses T1, Flag-Tcf3, Flag-full length (1-651aa) (UniProt P15923).
T1 sequence: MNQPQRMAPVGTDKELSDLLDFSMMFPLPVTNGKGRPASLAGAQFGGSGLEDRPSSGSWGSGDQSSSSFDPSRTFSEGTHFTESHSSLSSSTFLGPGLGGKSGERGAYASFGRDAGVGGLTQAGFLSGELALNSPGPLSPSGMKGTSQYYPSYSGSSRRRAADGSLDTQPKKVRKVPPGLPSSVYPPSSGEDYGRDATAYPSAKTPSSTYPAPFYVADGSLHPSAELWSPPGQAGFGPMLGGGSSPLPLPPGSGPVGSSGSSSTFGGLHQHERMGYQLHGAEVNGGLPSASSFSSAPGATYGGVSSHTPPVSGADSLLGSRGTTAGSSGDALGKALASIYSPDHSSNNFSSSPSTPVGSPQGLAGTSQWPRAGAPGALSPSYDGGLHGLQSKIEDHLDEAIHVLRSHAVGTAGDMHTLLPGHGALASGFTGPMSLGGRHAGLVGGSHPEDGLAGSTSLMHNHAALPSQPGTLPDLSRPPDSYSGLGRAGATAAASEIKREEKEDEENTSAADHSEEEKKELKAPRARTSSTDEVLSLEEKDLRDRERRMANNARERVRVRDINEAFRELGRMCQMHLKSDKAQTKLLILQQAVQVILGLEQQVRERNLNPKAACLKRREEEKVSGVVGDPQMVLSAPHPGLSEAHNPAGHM
Put plainly: co-IP; HEK-293 cells transfected with the plasmids (fixed Flag-Tcf3 and Tal1, increasing Id2; also PMA plus ionomycin-stimulated HEK-293 cells); Pierce co-IP kit, antibody-conjugated resin overnight at 4 °C; immunoblot.

Read-outs that look alike come from different tables or passages of the source. These are yes or no findings as the source states them, for the method shown. In cells and extracts the contact can be indirect. Some entries that bind do so weakly or less than the wild type. For some assays here: Tags and fused reporters may be left off the sequences shown.

As to “HDAC2 in Jurkat cells (from UniProt Q92769 1-488) (enzyme)”, in test [1], the binding entry is reported as “binds”. The same measure, in the same setting: with “HDAC1 in Jurkat cells (from UniProt Q13547 1-482) (enzyme)” the entry was “binds”.

B1: GFP-Id2^WT (inhibitor of DNA binding protein 2) (protein, UniProt Q02363 1-134)
chain: MKAFSPVRSVRKNSLSDHSLGISRSKTPVDDPMSLLYNMNDCYSKLKELVPSIPQNKKVSKMEILQHVIDYILDLQIALDSHPTIVSLHHQRPGQNQASRTPLTTLNTDISILSLQASEFPSELMSNDSKALCG
Turning to B1, the binding result in test [2] and in test [3] was “binds” each time.

B2: Id2 expressed in HEK-293 cells (protein, UniProt Q02363 1-134)
chain: B1 chain
In the case of B2, the binding entry in test [4] is “binds”.

These data come from PMC10902300.
